Results reported in patent publication US20090137424A1.
These are yes or no findings as the source states them, for the method shown. Some entries that bind do so weakly or less than the wild type. Sequences can lack the tags named with a protein.

Target: streptavidin (streptavidin coated microtiter plates, Pierce) (UniProt P22629)
Experiment: phage ELISA, streptavidin coated plates, anti-M13 HRP detection, OD492

B1: M13KE-SBP phage prepared in E. coli XL1-Blue (streptavidin binding peptide with glutamine at residue X, fused to pIII) (peptide, not shown: large carriers)
chain: AGQTLLAHPQ
In the case of B1, the binding is reported as “binds”.
